The list shows a part of the results. Small differences around the control level are noise.
Compound: CN[C@@H]1C[C@H]2O[C@@](C)([C@@H]1OC)n1c3ccccc3c3c4c(c5c6ccccc6n2c5c31)C(=O)NC4 [staurosporine]
Experiment: log2 fold change of tryptic peptide abundance, ligand vs vehicle (limited proteolysis) (log2 ratio); higher = more trypsin-susceptible (destabilized)
Details: ligand concentration: 20 uM; sample: K562 cleared lysate; digestion: 4 min, 22 C (HT-PELSA RT4min, Orbitrap Astral)

Sequences of proteins named here, by UniProt entry; tags and fusion partners are left off. A change or cut given only in a name is not applied to a line headed by its entry.
UniProt Q9BV57: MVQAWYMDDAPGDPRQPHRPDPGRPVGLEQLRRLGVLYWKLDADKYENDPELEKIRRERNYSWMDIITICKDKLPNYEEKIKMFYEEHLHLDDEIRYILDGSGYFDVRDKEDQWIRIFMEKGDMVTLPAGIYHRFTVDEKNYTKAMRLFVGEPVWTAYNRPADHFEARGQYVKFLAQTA
UniProt Q9BT23: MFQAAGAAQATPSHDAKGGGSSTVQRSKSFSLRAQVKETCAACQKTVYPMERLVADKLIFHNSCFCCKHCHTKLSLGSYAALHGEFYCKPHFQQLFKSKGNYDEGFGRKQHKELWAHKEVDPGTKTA
UniProt Q9BSK1: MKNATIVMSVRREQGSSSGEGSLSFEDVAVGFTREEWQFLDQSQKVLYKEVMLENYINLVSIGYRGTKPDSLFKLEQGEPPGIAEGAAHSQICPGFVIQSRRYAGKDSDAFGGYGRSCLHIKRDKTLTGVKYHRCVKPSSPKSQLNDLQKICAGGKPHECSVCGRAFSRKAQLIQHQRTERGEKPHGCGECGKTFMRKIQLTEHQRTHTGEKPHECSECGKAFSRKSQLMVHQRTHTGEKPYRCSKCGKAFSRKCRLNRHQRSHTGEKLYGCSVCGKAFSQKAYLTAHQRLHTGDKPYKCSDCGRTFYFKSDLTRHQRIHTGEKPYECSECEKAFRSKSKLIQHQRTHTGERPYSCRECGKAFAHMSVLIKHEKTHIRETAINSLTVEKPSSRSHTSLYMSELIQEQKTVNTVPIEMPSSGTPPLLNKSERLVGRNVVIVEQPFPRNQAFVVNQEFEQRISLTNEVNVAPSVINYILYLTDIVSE
UniProt Q9BV19: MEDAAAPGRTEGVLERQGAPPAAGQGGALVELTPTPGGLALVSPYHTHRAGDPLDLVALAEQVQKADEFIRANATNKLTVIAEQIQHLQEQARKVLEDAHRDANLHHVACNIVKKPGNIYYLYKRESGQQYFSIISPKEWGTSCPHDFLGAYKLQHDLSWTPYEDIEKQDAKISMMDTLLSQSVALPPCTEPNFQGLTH
UniProt Q9BRT2: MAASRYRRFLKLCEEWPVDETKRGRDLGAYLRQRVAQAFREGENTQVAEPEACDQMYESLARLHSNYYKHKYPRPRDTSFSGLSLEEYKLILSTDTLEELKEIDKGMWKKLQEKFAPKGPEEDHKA
UniProt Q9BWD1: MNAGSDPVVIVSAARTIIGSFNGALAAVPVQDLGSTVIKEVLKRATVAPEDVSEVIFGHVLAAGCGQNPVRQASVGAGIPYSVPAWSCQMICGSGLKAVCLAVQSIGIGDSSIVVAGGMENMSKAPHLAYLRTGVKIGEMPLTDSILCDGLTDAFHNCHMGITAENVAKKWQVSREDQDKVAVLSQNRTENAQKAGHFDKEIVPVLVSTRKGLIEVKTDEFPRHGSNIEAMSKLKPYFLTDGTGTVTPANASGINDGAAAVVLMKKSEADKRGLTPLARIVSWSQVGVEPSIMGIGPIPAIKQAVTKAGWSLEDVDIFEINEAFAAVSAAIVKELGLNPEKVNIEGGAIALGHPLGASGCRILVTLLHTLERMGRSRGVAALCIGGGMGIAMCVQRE
UniProt Q9BTY7: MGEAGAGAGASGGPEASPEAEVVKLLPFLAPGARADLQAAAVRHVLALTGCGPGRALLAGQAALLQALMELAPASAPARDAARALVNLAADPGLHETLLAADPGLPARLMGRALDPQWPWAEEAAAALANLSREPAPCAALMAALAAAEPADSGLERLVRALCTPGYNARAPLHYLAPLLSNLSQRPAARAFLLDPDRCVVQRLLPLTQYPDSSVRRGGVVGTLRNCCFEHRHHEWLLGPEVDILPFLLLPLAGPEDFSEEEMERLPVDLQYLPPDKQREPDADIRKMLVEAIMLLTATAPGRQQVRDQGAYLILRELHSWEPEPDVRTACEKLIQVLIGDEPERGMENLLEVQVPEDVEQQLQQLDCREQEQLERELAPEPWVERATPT
UniProt Q9BTE0: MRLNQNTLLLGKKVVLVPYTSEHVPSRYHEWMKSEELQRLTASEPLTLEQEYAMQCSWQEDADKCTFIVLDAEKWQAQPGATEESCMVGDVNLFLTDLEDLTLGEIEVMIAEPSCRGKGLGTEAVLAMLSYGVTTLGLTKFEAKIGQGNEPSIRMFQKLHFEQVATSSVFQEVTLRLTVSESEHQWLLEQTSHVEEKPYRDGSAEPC
UniProt Q99627: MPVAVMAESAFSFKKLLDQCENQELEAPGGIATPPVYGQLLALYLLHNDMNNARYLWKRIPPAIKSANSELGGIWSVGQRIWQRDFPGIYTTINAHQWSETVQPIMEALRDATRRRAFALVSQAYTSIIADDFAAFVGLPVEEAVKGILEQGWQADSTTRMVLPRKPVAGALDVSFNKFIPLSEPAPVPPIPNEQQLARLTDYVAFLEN
UniProt Q9BTZ2: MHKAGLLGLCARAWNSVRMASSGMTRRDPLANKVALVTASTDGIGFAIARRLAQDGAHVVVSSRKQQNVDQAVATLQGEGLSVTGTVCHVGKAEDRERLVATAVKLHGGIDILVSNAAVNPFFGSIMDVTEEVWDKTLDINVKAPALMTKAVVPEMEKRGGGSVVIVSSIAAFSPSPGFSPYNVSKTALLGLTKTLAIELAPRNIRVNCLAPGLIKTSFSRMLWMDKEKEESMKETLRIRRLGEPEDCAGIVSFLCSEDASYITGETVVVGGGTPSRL
UniProt Q9BUN8: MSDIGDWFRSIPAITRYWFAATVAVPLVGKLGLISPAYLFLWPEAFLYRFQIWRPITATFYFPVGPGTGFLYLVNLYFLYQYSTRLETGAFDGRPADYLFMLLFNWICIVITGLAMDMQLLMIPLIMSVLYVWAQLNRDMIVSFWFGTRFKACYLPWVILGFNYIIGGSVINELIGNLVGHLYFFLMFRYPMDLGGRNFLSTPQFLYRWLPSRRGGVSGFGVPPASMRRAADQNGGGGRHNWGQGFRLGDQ
UniProt Q9BRQ8: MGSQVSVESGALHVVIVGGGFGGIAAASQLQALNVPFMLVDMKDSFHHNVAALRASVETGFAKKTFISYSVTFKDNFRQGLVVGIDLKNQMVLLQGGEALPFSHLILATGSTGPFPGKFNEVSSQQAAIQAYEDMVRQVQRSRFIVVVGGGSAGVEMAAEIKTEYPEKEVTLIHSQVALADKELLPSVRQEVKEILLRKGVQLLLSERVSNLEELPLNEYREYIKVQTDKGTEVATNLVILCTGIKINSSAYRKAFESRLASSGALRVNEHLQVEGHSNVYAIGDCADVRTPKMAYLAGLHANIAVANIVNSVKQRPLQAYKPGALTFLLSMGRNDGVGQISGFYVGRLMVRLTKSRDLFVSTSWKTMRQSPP
UniProt Q9BU89: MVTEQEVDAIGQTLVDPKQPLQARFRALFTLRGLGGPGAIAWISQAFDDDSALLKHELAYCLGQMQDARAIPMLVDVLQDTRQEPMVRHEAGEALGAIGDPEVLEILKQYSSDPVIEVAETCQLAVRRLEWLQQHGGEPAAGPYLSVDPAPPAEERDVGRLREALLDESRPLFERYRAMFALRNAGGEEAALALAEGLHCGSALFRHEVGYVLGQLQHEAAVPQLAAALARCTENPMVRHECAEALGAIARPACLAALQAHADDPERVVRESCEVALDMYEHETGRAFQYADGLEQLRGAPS
UniProt Q9BUX1: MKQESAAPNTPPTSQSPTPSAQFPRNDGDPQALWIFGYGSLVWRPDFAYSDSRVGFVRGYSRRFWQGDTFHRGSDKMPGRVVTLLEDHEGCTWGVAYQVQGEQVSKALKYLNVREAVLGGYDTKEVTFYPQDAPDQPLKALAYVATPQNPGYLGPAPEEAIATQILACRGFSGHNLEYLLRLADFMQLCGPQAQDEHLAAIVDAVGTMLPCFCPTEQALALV
UniProt Q9BTT4: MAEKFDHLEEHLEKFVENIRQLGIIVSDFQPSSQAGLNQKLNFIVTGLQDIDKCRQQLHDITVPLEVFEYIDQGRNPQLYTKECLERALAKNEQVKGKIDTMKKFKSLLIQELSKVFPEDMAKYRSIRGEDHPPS
UniProt Q9BW62: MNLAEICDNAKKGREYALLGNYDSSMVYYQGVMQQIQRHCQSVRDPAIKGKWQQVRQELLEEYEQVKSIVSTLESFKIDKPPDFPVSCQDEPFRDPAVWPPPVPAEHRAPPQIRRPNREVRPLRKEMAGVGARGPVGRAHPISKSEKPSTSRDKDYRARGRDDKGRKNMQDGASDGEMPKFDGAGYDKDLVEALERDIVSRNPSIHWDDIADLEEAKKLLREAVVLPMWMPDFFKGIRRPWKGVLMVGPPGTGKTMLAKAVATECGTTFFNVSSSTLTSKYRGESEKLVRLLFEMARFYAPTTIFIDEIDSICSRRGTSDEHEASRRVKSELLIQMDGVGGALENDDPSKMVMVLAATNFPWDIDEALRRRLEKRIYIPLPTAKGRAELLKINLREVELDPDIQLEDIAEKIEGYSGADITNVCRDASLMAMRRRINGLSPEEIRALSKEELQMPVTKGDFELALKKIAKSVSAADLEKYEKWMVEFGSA
UniProt Q9BQA5: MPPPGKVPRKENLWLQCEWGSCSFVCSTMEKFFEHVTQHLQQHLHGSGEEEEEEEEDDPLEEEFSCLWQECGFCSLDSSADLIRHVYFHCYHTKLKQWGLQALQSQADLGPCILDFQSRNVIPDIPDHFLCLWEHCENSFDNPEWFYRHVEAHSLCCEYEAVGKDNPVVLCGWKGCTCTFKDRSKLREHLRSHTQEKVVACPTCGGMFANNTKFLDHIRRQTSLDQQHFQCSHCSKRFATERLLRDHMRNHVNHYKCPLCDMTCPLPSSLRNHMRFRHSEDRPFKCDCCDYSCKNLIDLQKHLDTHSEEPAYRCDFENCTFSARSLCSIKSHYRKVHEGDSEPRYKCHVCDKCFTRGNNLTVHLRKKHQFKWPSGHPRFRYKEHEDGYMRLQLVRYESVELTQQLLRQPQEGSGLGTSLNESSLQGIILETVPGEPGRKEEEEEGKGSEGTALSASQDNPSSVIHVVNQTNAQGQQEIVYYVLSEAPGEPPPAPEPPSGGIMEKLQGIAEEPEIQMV
UniProt Q9BV68: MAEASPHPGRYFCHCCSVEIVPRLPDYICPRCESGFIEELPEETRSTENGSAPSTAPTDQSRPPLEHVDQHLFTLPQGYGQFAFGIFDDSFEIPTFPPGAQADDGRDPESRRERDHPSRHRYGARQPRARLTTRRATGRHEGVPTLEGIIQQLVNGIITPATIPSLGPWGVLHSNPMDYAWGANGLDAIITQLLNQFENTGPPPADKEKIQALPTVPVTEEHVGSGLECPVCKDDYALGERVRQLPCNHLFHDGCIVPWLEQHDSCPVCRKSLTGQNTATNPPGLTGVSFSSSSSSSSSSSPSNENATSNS
UniProt Q9BQ15: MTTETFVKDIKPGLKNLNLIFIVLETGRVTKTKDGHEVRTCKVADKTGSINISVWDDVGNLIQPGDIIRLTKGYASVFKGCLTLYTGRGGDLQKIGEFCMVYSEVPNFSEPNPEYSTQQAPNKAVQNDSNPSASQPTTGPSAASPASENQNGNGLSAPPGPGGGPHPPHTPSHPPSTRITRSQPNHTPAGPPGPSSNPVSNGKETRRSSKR
UniProt Q9BSD7: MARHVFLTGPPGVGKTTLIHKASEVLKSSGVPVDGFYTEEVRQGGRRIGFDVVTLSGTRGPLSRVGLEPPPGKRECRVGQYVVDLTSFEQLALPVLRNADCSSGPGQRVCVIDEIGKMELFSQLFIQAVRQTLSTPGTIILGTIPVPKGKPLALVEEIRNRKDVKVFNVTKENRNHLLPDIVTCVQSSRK
UniProt Q9BW04: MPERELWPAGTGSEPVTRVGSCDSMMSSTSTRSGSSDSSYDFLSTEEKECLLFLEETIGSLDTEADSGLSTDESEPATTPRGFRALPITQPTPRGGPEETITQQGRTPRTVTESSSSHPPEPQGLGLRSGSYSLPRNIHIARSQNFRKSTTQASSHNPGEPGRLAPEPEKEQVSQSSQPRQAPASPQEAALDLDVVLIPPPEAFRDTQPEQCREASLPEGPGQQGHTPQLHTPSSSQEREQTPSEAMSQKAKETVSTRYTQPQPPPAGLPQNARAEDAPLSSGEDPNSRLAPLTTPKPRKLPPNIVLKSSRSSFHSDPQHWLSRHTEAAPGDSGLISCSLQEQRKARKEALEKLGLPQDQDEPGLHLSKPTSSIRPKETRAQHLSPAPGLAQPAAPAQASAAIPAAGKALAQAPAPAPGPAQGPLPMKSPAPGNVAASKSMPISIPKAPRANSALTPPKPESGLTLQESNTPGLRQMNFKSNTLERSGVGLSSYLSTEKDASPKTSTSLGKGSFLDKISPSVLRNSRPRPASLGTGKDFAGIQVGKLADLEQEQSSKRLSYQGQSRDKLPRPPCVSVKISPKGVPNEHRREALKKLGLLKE
UniProt Q9BRX2, whole entry: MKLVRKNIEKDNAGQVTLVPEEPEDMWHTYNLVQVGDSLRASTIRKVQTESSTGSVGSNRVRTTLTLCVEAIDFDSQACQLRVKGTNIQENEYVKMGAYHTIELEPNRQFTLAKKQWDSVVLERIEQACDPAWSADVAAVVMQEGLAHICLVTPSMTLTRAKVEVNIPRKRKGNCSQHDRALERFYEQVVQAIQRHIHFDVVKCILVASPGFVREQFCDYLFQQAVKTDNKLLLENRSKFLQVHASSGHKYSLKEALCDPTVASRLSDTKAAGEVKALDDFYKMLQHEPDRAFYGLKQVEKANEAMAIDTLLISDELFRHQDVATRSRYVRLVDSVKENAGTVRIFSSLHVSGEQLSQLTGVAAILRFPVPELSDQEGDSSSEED

| Target | log2 fold change |
| --- | --- |
| MSTO1 (peptide sequence: LILMDLK, peptide start residue: 67) (UniProt Q9BUK6) | 0.263 |
| TIPIN (peptide sequence: LQFEDFIDRVEYLGSKK, peptide start residue: 118) (UniProt Q9BVW5) | 0.253 |
| ADI1 (peptide sequence: LFVGEPVWTAYNRPADHFEAR, peptide start residue: 148) (UniProt Q9BV57) | 0.474 |
| LIMD2 (peptide sequence: GNYDEGFGR, peptide start residue: 100) (UniProt Q9BT23) | -0.106 |
| SLC39A3 (peptide sequence: GHALYVEPHGHGPSLSVQGLSR, peptide start residue: 143) (UniProt Q9BRY0) | -0.0262 |
| C7orf25 (peptide sequence: QTLVVDVVANGGHTWVK, peptide start residue: 102) (UniProt Q9BPX7) | 0.195 |
| UniProt Q9BSK1 (peptide sequence: KSQLMVHQRTHTGEK, peptide start residue: 226) | 0.259 |
| C1orf50 (peptide sequence: KVLEDAHR, peptide start residue: 94) (UniProt Q9BV19) | 0.333 |
| UniProt Q9BQI3 (peptide sequence: IIEQEKEIAELKK, peptide start residue: 597) | -0.573 |
| WDR18 (peptide sequence: VRVTELEDEVR, peptide start residue: 400) (UniProt Q9BV38) | -0.0738 |
| UniProt Q9BRT2 (peptide sequence: LILSTDTLEELKEIDKGMWK, peptide start residue: 90) | 0.176 |
| ACAT2 (peptide sequence: EIVPVLVSTR, peptide start residue: 201) (UniProt Q9BWD1) | -0.155 |
| CCDC28B (peptide sequence: RVPVPTSHSGSLALGLPHLPSPK, peptide start residue: 26) (UniProt Q9BUN5) | 0.212 |
| PHF23 (peptide sequence: RTIEDFNK, peptide start residue: 29) (UniProt Q9BUL5) | 0.587 |
| UniProt Q9BTY7 (peptide sequence: ALVNLAADPGLHETLLAADPGLPAR, peptide start residue: 84) | 0.155 |
| VPS25 (peptide sequence: LIYQWVSR, peptide start residue: 110) (UniProt Q9BRG1) | -0.284 |
| UniProt Q9BTE0 (peptide sequence: LNQNTLLLGK, peptide start residue: 3) | -0.161 |
| RNF5 (peptide sequence: QECPVCK, peptide start residue: 62) (UniProt Q99942) | -0.254 |
| UniProt Q9BVR0 (peptide sequence: EVCAPVIER, peptide start residue: 1504) | 0.321 |
| UniProt Q9BR11 (peptide sequence: DSSPPMLLHQVNK, peptide start residue: 42) | -0.243 |
| COPS8 (peptide sequence: KPVAGALDVSFNK, peptide start residue: 166) (UniProt Q99627) | -0.0333 |

| Target | log2 fold change |
| --- | --- |
| LPIN3 (peptide sequence: GLNPATLSGGIDVLVVK, peptide start residue: 21) (UniProt Q9BQK8) | 0.607 |
| DHRS4 (peptide sequence: LAQDGAHVVVSSR, peptide start residue: 52) (UniProt Q9BTZ2) | -0.163 |
| DERL1 (peptide sequence: HNWGQGFR, peptide start residue: 240) (UniProt Q9BUN8) | -0.0496 |
| PKMYT1 (peptide sequence: VGQHPCCVR, peptide start residue: 164) (UniProt Q99640) | 0.457 |
| SPATA5L1 (peptide sequence: DLALYENLFK, peptide start residue: 734) (UniProt Q9BVQ7) | 0.278 |
| AIFM2 (peptide sequence: SRDLFVSTSWK, peptide start residue: 356) (UniProt Q9BRQ8) | 0.266 |
| DOHH (peptide sequence: ESCEVALDMYEHETGR, peptide start residue: 271) (UniProt Q9BU89) | -0.115 |
| UniProt Q9BTE3 (peptide sequence: RSYEDDDDMDLQPNK, peptide start residue: 166) | 0.583 |
| REPIN1 (peptide sequence: VHTGERPHQCPECGK, peptide start residue: 257) (UniProt Q9BWE0) | -1.21 |
| NOL10 (peptide sequence: QKIEETR, peptide start residue: 431) (UniProt Q9BSC4) | 0.348 |
| PKP2 (peptide sequence: IQEQVQQTLAR, peptide start residue: 56) (UniProt Q99959) | 0.611 |
| UniProt Q99966 (peptide sequence: KAVAILHYPGVASNGTK, peptide start residue: 40) | 0.246 |
| CHAC1 (peptide sequence: GFSGHNLEYLLR, peptide start residue: 170) (UniProt Q9BUX1) | 0.102 |
| EIF3C (peptide sequence: GCILTLVERMDEEFTK, peptide start residue: 442) (UniProt Q99613) | 0.314 |
| UniProt Q99879 (peptide sequence: HAVSEGTKAVTKYTSSK, peptide start residue: 110) | 0.229 |
| BARD1 (peptide sequence: TLAEINQK, peptide start residue: 210) (UniProt Q99728) | 0.242 |
| HNRNPAB (peptide sequence: MFVGGLSWDTSKK, peptide start residue: 71) (UniProt Q99729) | -0.118 |
| DPH2 (peptide sequence: LGQTPVTEAVSGR, peptide start residue: 464) (UniProt Q9BQC3) | 0.108 |
| MED10 (peptide sequence: SLLIQELSK, peptide start residue: 107) (UniProt Q9BTT4) | 0.163 |
| ZKSCAN3 (peptide sequence: VLQVPVLAHGGCCREDK, peptide start residue: 184) (UniProt Q9BRR0) | -0.282 |
| UniProt Q99607 (peptide sequence: DQAHLQPLPTQVVSR, peptide start residue: 572) | -0.117 |

| Target | log2 fold change |
| --- | --- |
| KATNAL1 (peptide sequence: IYIPLPTAK, peptide start residue: 376) (UniProt Q9BW62) | 0.139 |
| UniProt Q9BSJ8 (peptide sequence: IHVLEAQDLIAKDRFLGGLVK, peptide start residue: 651) | 0.764 |
| APBA2 (peptide sequence: LKWPHEQVCNGLEQPR, peptide start residue: 311) (UniProt Q99767) | 0.3 |
| GFI1 (peptide sequence: AFSQSSNLITHSR, peptide start residue: 284) (UniProt Q99684) | 0.0653 |
| LLPH (peptide sequence: MQCEVKDEK, peptide start residue: 62) (UniProt Q9BRT6) | 0.32 |
| THUMPD3 (peptide sequence: VDTVWVNVGGLR, peptide start residue: 465) (UniProt Q9BV44) | -0.168 |
| TSEN34 (peptide sequence: KTLLLCSPQPDGK, peptide start residue: 286) (UniProt Q9BSV6) | 0.363 |
| UniProt Q9BUT9 (peptide sequence: QPAPPTSQPPR, peptide start residue: 36) | -0.116 |
| HINFP (peptide sequence: YKEHEDGYMR, peptide start residue: 381) (UniProt Q9BQA5) | -1.16 |
| MTR (peptide sequence: EAMHGVFLYHAIK, peptide start residue: 592) (UniProt Q99707) | 0.341 |
| RNF126 (peptide sequence: DDYALGER, peptide start residue: 234) (UniProt Q9BV68) | -0.503 |
| PRMT1 (peptide sequence: DVAIKEPLVDVVDPK, peptide start residue: 229) (UniProt Q99873) | 0.366 |
| RAD9A (peptide sequence: CCISLNGR, peptide start residue: 97) (UniProt Q99638) | 0.277 |
| NABP2 (peptide sequence: SQPNHTPAGPPGPSSNPVSNGKETR, peptide start residue: 182) (UniProt Q9BQ15) | 0.168 |
| COPS4 (peptide sequence: IASQMITEGR, peptide start residue: 338) (UniProt Q9BT78) | 0.32 |
| UniProt Q9BSD7 (peptide sequence: IGFDVVTLSGTR, peptide start residue: 48) | -0.297 |
| SARG (peptide sequence: TVTESSSSHPPEPQGLGLR, peptide start residue: 110) (UniProt Q9BW04) | 0.536 |
| UniProt Q9BUR4 (peptide sequence: GQGGTEGGVGELI, peptide start residue: 536) | 0.0926 |
| UniProt Q9BUU2 (peptide sequence: AASDSNPAGPLR, peptide start residue: 130) | -0.655 |
| PELO (peptide sequence: MGAYHTIELEPNRQFTLAK, peptide start residue: 96) (UniProt Q9BRX2) | -0.465 |

Reference: the supplement of paper PMC12819154, “High-throughput peptide-centric local stability assay extends protein–ligand identification to membrane proteins, tissues and bacteria” (Nature Structural & Molecular Biology, 2025)
